The source of these data is patent US11109819B2, “System and method for quantitatively mapping mitochondrial membrane potential” (The General Hospital Corporation, priority 2016, dated 2021).

Some results come without the dose or concentration used.

In the series the test system is mitochondrial membrane potential of myocardium. Nature of the series: Quantitative PET mapping of mitochondrial membrane potential with 18F-TPP+. It is filed as in vivo, domestic swine. Conditions: injured pig, assuming ΔΨc=−30 mV, ƒmito=0.15, FIG. 9.

In the case of `[18F]c1ccc([P+](c2ccccc2)(c2ccccc2)c2ccccc2)cc1` [^18F-TPP^+, ^18F-tetraphenylphosphonium], the ΔΨm reads like this: (core of the tissue injury) 20 mV; (other vascular territories) 145 mV.
